Measured values as given in patent publication US20210107971A1.
Results are given in words; binding and its absence hold for the method and conditions named.

Experiments:
[1] = biological target: monoclonal 6470 rabbit Fab; experiment: condition: 1 µM peptide (from paragraph 308; not on the sheet); competitive SPR: 6470 Fab pre-incubated with peptide, injected over immobilised human alpha synuclein monomer and fibrils; %inhibition
[2] = biological target: T1, AS115-124 (human); experiment: competitive SPR (Biacore 3000), 50 nM Fab pre-incubated with peptide
T1 sequence (peptide, N-terminal acetyl, C-terminal amide): DMPVDPDNEA

[3] = biological target: T2, AS127-136 (human); experiment: as above
T2 sequence (peptide, N-terminal acetyl, C-terminal amide): MPSEEGYQDY

[4] = biological target: T3, AS119-128 (human); experiment: as above
T3 sequence (peptide, N-terminal acetyl, C-terminal amide): DPDNEAYEMP

In the case of DMPVDPDNEA (N-terminal acetyl, C-terminal amide) [AS115-124], the binding [1] is reported as “no binding”.

B1: monoclonal 6470 rabbit Fab (Fab, V domains shown)
VH: QSVEESGGRLVTPGTPLTLTCTVSGIDLSSHDMYWVRQAPGKGLEYIGAIYASGSTYYASWAKGRFTISKTSTTVDLKMTSLTTEDTATYFCARIHYGNSGGLWGQGTLVTVSS
VL: AIVMTQTPSSKSVAVGDTVTINCQASQSVYKNNYLAWFQQKPGQPPKQLIYGASTLASGVPSRFKGSGSGTQFTLTISDVVCDDAATYYCAGYKGGRNDGFAFGGGTEVVVKR
B1 was tested, and the binding [2] was “no binding (tested: 1 µM peptide)”, the binding [3] was “no binding (tested: 1 µM peptide)” and the binding [4] was “no binding (tested: 1 µM peptide)”.
